# Assay results: US20220267271A1, “WNT ACTIVATORS AND METHODS OF USE” (MAYO FOUNDATION FOR MEDICAL EDUCATION AND RESEARCH, priority 2019, published 2022)
# At least one compound was matched to its structure with a doubt left.
# Tested on: Wnt/β-catenin signaling
# Assay: Luciferase reporter assay (Super8XTOPFlash) for Wnt/β-catenin signaling in HEK293 cells
# Type: cell-based
# Conditions: 24 h
# Method: (A) structures of niciosamide and CI-994; (B) HEK293 cells were transfected with Super8XTOPFlash and β galactosidase vectors along with Wnt3A or control vector. After 24 hours incubation, cells were treated with CI-994 at the indicated concentration for 24 hr. The luciferase activity was then measured and normalized to the activity of the β-galactosidase. (C) HT1080 cells stably transduced LRP6 with HA tag were treated with niciosamide and CI-994 at the indicated concentrations for 24 h. The levels of HA-LRP6 were examined by Western blot with anti-HA antibody. (D) Western blots showing the depletion of LRP6 after 2 days of transiently transfection of 50 nM LRP6 siRNA in HEK293 cells. […] The luciferase activity was then measured and normalized to β-galactosidase activity. […]
# HEK293 cells were transfected with SuperXTOPFlash and β-galactosidase vectors along with Wnt3A or control vector. […] The luciferase activity was then measured and normalized to the activity of the β-galactosidase. […]
# Luciferase reporter assay for Wnt/β-catenin signaling: HEK293 cells were plated into 24-well plates. […] Cells were then lysed and both luciferase and β-galactosidase activities were determined. […]
# HEK293 cells were plated into 24-well plates. […] The luciferase activity was normalized to the s-galactosidase activity, and the EC50 values were calculated by use of GraphPad software, and shown in the below table. […]
compound,measurement,value
"Cc1[nH]c2ccccc2c1CCNCc1ccc(/C=C/C(=O)NO)cc1 [Panobinostat, reference compound]",Wnt reporter activity / activation of Wnt/β-catenin signaling,unable to activate
